{"source": "patent US8592419B2", "about": "“Ceramides and apoptosis-signaling ligand” (MUSC Foundation for Research Development, priority 2004, dated 2013)", "key": {"PPC-1/pcDNA3 cells": {"test_system": "PPC-1/pcDNA3 cells", "assay": "MTS cell viability assay in PPC-1/pcDNA3 cells with kinase inhibitors", "assay_type": "cell-based, human", "settings": "20 μM SB-203580, 40 μM SP600125, LCL204 8 hours", "description": "MTS cytotoxicity assays for LCL204 treatments. Cell viability was determined using the CellTiter 96 AQueous One Solution Cell Proliferation Assay (Promega; Madison, Wis., USA). 1×10^4 cells per well were seeded in 96-well plates overnight. The next day media was removed and replaced with either 100 μl media with vehicle control or media containing LCL204 at desired concentrations. Assays were carried out according to manufacturer's instruction as previously described (60). For experiments using enzyme inhibitors and LCL204, media was removed and replaced with 50 μl media containing vehicle only or indicated inhibitor. Cells were pretreated 1 hour at 37° C. before adding 50 μl media containing vehicle, inhibitor only, LCL204 only (2× concentration), or a combination. The remainder of the assay was carried out as described above.\nStable transfections. Both CMV-TAM67 and pcDNA3 vectors were from Dr. Michael Birrer (National Cancer Institute; Rockville, Md.). PPC-1 cells (7×10^5) were transfected with 4 μg of DNA in 60 mm dishes using FuGENE6 according to the manufacturer's instructions. Stably transfected clones were selected in 400 μg/mL G418 (Sigma). TAM67 was detected by Western blot analysis using an antibody for c-Jun (Ab-1, Oncogene) as described above."}, "p73": {"test_system": "p73", "assay": "Immunoblot of p73", "assay_type": "cell-based, human", "settings": "PPC-1 transfectants, with LCL204 7.5 μM", "description": "Immunoblot analysis. Cells were seeded in 60mm plates as described above and treated accordingly. Cells were lifted by gently scraping the plates, washed once with ice cold PBS and then lysed in lysis buffer (PBS, 1% Triton X-100, 10% glycerol) containing protease inhibitors pepstatin A (0.5 μg/ml), leupeptin (0.5 μg/ml), aprotinin (5 μg/ml), and PMSF (100 μg/ml) for 10 minutes on ice. Insoluble material was removed by centrifugation at 14,000 rpm for 15 minutes at 4° C. The supernatants were then supplemented with SDS at a final concentration of 2% and stored at −80° C. Protein concentrations were determined using the DC Protein Assay (BioRad Laboratories; Hercules, CA, USA) according to the manufacturer's instructions. 50 μg of protein per sample (unless otherwise indicated) were separated on NuPAGE 4-12% Bis-Tris gels (Invitrogen; Carlsbad, CA, USA) and transferred to nitrocellulose membranes (BioRad). Following transfer, membranes were blocked for 1 hour at room temperature in Tris-buffered saline (TBS) containing 0.1% Tween-20 and 5% nonfat dry milk and incubated overnight at 4° C. with primary antibody at a dilution of 1:2,000(actin), 1:1,000(cytochrome c, COX IV, Bax, Bak, p53, p38, P-p38), 1:500(P-JNK, JNK), 1:250 (AC, p73), or 1:400(LAMP-1, cathepsin B). Overnight incubations were performed in 5% milk in TBS-Tween. […]"}}, "note": "At least one compound was matched to its structure with a doubt left.", "data": [{"smiles": "Oc1c2ccccc2c2c3c(cccc13)N=N2", "note": "[SP600125]", "values": [{"measurement": "effect on LCL204 cell killing", "setting": "PPC-1/pcDNA3 cells", "value": "inhibited cell killing to a similar extent"}, {"measurement": "effect of kinase inhibitor on LCL204-induced p73 induction", "setting": "p73", "value": "did not affect p73 induction"}]}]}
